Experimental data: paper PMC6328551
Results are given in words; binding and its absence hold for the method and conditions named. In cells and extracts the contact can be indirect. For some assays here: Binding calls can cover weak binding; strength is not graded here. Sequences can lack the tags named with a protein.

How the values were obtained:
SFB-tagged MFN1 = molecular target: T1, SFB-tagged MFN1 (UniProt Q8IWA4); test: pull-down; SFB-tagged bait and ARMC10 co-transfected into HEK293T cells; lysis in NETN buffer; lysates with S protein beads for 2 h at 4 °C; Western blot
T1 sequence: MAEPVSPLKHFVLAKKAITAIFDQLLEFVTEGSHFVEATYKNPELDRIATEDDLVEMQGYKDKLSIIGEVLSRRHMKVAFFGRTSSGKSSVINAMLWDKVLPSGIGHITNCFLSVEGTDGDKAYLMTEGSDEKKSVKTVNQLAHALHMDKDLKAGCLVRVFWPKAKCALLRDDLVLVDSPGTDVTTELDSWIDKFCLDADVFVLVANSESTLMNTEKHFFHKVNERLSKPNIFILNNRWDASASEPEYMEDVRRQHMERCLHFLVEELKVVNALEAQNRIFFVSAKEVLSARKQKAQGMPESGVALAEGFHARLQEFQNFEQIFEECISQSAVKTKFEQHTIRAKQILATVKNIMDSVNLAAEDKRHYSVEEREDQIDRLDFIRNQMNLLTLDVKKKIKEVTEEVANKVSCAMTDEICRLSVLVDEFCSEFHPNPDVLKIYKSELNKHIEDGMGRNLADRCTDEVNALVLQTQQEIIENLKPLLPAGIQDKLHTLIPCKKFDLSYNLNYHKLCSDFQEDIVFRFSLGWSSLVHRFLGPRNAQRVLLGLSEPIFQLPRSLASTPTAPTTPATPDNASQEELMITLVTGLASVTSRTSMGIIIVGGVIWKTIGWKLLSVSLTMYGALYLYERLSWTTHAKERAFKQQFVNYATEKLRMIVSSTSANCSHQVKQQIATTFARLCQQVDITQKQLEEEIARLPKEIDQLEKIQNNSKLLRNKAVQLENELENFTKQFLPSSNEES

[1] = molecular target: T2, SFB-tagged MFF (mitochondrial fission factor) (UniProt Q9GZY8); test: as above
T2 sequence: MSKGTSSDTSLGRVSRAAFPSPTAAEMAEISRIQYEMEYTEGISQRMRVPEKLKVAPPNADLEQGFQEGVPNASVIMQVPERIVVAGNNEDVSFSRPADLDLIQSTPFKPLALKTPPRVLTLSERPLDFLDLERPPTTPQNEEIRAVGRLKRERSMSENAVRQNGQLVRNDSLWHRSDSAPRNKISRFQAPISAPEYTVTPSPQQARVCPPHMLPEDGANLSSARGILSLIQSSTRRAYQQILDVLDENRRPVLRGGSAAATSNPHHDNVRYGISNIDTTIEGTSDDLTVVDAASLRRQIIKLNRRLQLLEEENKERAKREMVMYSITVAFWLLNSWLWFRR

Substance: Myc-tagged ARMC10, short isoform (308 residues) (human)
- binding (SFB-tagged MFN1): no binding
- binding [1]: binds
